In article PMC8857481:

Biological target: FLAG-METTL5 (human)
Experiment: affinity purification with mass spectrometry; FLAG-M2 magnetic beads in lysate of FreeStyle 293-F cells transfected with pCS2-FLAG-METTL5, 30 min at 4 °C; washes with lysis buffer (50 mM NaCl, 0.5% NP-40) and high salt buffer (500 mM KCl); silver-stained gel bands excised and identified by nano LC/MS/MS

B1: TRMT112 (protein, UniProt Q9UI30 1-125)
chain: MKLLTHNLLSSHVRGVGSRGFPLRLQATEVRICPVEFNPNFVARMIPKVEWSAFLEAADNLRLIQVPKGPVEGYEENEEFLRTMHHLLLEVEVIEGTLQCPESGRMFPISRGIPNMLLSEEETES
For B1, the binding was “binds”.

Results are given in words; binding and its absence hold for the method and conditions named. In cells and extracts the contact can be indirect. Here binding means that the protein was enriched with, or labelled near, the bait; the list need not be complete.
